Measurements reported in PubChem BioAssay AID743448 (Peter MacCallum Cancer Centre, 2014).
Shown is a random part of the 106 reagents, under one of the conditions tested. 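Calls are per line and drug panel including etoposide, not vorinostat-specific; gene picks needed hits in two or more extra lines with vorinostat versus etoposide.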 Unmarked entries are inactive. Further read-outs or replicates are left out here. Reagent sequences are not shown.

Test: 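Test whether knock-downs sensitising to vorinostat hold across several colon lines but not etoposide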 (follow-up of hits)
System: four human colon cancer cell lines: HCT116-VR (vorinostat-resistant HCT116 derivative), SW480, SW620 and LIM1215
Knock-down reagent: siRNA pool against human genes, 40 nM siRNA pool
Time to read-out: drug added two days after transfection, read one day later
Conditions: vorinostat 2.5 µM on one half of each plate, etoposide 5 µM on the other half
Cell line and drug panel: SW620 cells with vorinostat
Measurement: 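Caspase luminescence and viability fluorescence, each expressed relative to mock transfection and also as robust z-scores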
Reading the numbers: caspase ratio to mock: higher = more caspase activity than mock; viability ratio to mock: higher = more live cells than mock
Call rule: 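Hit means caspase ratio to mock at least 1.6, or viability ratio to mock at most 0.75; wells with strong death in the absence of drug get no call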
Meaning of the calls: active = caspase or viability hit in this panel; inactive = no change, or unhealthy well

How did the screen score TFAP2D (transcription factor AP-2 delta)?
caspase ratio to mock: 1.33; viability ratio to mock: 1.11

For EIF2B5 (eukaryotic translation initiation factor 2B subunit epsilon), what was measured?
caspase ratio to mock: 1.09; viability ratio to mock: 0.86

What is on record for INTS6L (integrator complex subunit 6 like)?
caspase ratio to mock: 1.24; viability ratio to mock: 1.04

What is on record for POLR2K (RNA polymerase II, I and III subunit K)?
caspase ratio to mock: 1.31; viability ratio to mock: 0.91

With TDP2 (tyrosyl-DNA phosphodiesterase 2), what does the deposit list?
caspase ratio to mock: 1.36 (active); viability ratio to mock: 0.66

With TOX4 (TOX high mobility group box family member 4), what does the deposit list?
caspase ratio to mock: 1.21; viability ratio to mock: 1.09

What is on record for CNOT3 (CCR4-NOT transcription complex subunit 3)?
caspase ratio to mock: 1.6 (active); viability ratio to mock: 1.04

For FLII (FLII actin remodeling protein), what does the deposit list?
caspase ratio to mock: 1.5; viability ratio to mock: 1.08

What is on record for PLAG1 (PLAG1 zinc finger)?
caspase ratio to mock: 0.96; viability ratio to mock: 0.89

With RLN3 (relaxin 3), what does the deposit list?
caspase ratio to mock: 1.48; viability ratio to mock: 0.86

With FANCA (FA complementation group A), how do the results read?
caspase ratio to mock: 1.68 (active); viability ratio to mock: 0.94

With EIF4A1 (eukaryotic translation initiation factor 4A1), what does the deposit list?
caspase ratio to mock: 0.72; viability ratio to mock: 0.9

What did the screen give for EIF2B2 (eukaryotic translation initiation factor 2B subunit beta)?
caspase ratio to mock: 1.34; viability ratio to mock: 0.82

4 entries from above in another layout:
{"gene knocked down": "RLN3 (relaxin 3)", "caspase ratio to mock": 1.48, "viability ratio to mock": 0.86}
{"gene knocked down": "FANCA (FA complementation group A)", "caspase ratio to mock": "1.68 (active)", "viability ratio to mock": 0.94}
{"gene knocked down": "EIF4A1 (eukaryotic translation initiation factor 4A1)", "caspase ratio to mock": 0.72, "viability ratio to mock": 0.9}
{"gene knocked down": "EIF2B2 (eukaryotic translation initiation factor 2B subunit beta)", "caspase ratio to mock": 1.34, "viability ratio to mock": 0.82}

The listing continues.
For AKAP8 (A-kinase anchoring protein 8), how do the results read?
caspase ratio to mock: 1.19; viability ratio to mock: 1.07

What did the screen give for H1-5 (H1.5 linker histone, cluster member)?
caspase ratio to mock: 1.31 (active); viability ratio to mock: 0.66

What did the screen give for BEGAIN (brain enriched guanylate kinase associated)?
caspase ratio to mock: 1.53; viability ratio to mock: 1

What is on record for SLU7 (spliceosome associated SLU7)?
caspase ratio to mock: 1.14 (active); viability ratio to mock: 0.63

With IQSEC1 (IQ motif and Sec7 domain ArfGEF 1), what does the deposit list?
caspase ratio to mock: 1.41; viability ratio to mock: 0.9

How did the screen score AP5S1 (adaptor related protein complex 5 subunit sigma 1)?
caspase ratio to mock: 1.32; viability ratio to mock: 0.88

How did the screen score CAPN12 (calpain 12)?
caspase ratio to mock: 0.86; viability ratio to mock: 0.84

For POLR2D (RNA polymerase II subunit D), what was measured?
caspase ratio to mock: 1.81 (active); viability ratio to mock: 0.73

What is on record for MICALL2 (MICAL like 2)?
caspase ratio to mock: 1.97 (active); viability ratio to mock: 1.06

With PNN (pinin, desmosome associated protein), what was measured?
caspase ratio to mock: 2.18 (active); viability ratio to mock: 0.82

What did the screen give for CSE1L (chromosome segregation 1 like)?
caspase ratio to mock: 1.81 (active); viability ratio to mock: 1.14

With MED26 (mediator complex subunit 26), what was measured?
caspase ratio to mock: 2.33 (active); viability ratio to mock: 1.1

What did the screen give for RBM42 (RNA binding motif protein 42)?
caspase ratio to mock: 0.66; viability ratio to mock: 0.94

With GNG8 (G protein subunit gamma 8), how do the results read?
caspase ratio to mock: 1.86 (active); viability ratio to mock: 0.88

What is on record for RWDD2A (RWD domain containing 2A)?
caspase ratio to mock: 1.5; viability ratio to mock: 0.91
